Values from PubChem BioAssay AID1508588 (Peter MacCallum Cancer Centre, 2020).
Aim: 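Which gene losses make BRAF-mutant melanoma cells more responsive to vemurafenib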 (primary screen). Cells: human WM266.4 melanoma cells (BRAF V600 mutant). Reagent: siRNA pool against human genes, 40 nM. Time to read-out: 96 h from transfection to read-out. Conditions: vemurafenib 300 nM (about IC25), added 48 h after transfection, for 48 h; comparison arm got DMSO vehicle only. Detection: 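Cell gain (DAPI nuclei at end minus before drug, mean of two replicates) and medium lactate by absorbance per cell, both as ratio to non-targeting siRNA, also grouped into fold-change classes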. Direction: cell gain with vemurafenib: higher = more cell gain than with non-targeting siRNA; lactate per cell with vemurafenib: higher = more lactate made per cell. Active means: 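a knock-down counts as enhancing when its fold-change classes with vehicle and with vemurafenib, taken together, show a stronger drug effect on cell gain or lactate per cell; exact class pairs not stated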. Meaning of the calls: active = enhances vemurafenib effect; inactive = no enhancement seen.
In all, the deposit lists about 18,000 reagents; below is an unselected part. Of all reagents, 790 (4.4%) got an active call. 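Calls rest on a combination of fold-change classes in drug and vehicle arms, not all shown here.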

target gene | cell gain with vemurafenib | lactate per cell with vemurafenib | Call
XPR1 (GeneID 9213) | 1.18 | 1.02 | inactive
UGT2B7 (GeneID 7364) | 0.63 | 1.17 | inactive
NOL6 (GeneID 65083) | 0.34 | 1.12 | inactive
NME6 (GeneID 10201) | 0.7 | 0.96 | inactive
NTNG2 (GeneID 84628) | 0.55 | 0.62 | inactive
PDCD1 (GeneID 5133) | 0.37 | 1.35 | inactive
NPHP1 (GeneID 4867) | 0.23 | 2.21 | inactive
MED20 (GeneID 9477) | 0.4 | 1.4 | inactive
AKAP9 (GeneID 10142) | 0.57 | 0.86 | inactive
TM4SF20 (GeneID 79853) | 0.43 | 0.17 | active
PRELID2 (GeneID 153768) | 0.9 | 0.58 | inactive
PLPP1 (GeneID 8611) | 0.53 | 0.52 | inactive
SEBOX (GeneID 645832) | 0.95 | 0.52 | inactive
PHLDB1 (GeneID 23187) | 0.65 | 0.73 | inactive
OR8B8 (GeneID 26493) | 0.01 | 1.58 | inactive
SUGT1P4-STRA6LP-CCDC180 (GeneID 57653) | 0.35 | 1.72 | inactive
MYH1 (GeneID 4619) | 0.47 | 1.2 | inactive
PRKCD (GeneID 5580) | 0.18 | 1.59 | inactive
SYT7 (GeneID 9066) | 0.84 | 0.85 | inactive
B4GALNT2 (GeneID 124872) | 0.33 | 1.62 | inactive
SLC18A3 (GeneID 6572) | 0.55 | 0.57 | inactive
RFC2 (GeneID 5982) | 0.34 | 1.14 | inactive
RNF126 (GeneID 55658) | 0.64 | 1.33 | inactive
FIGNL1 (GeneID 63979) | 0.81 | 0.78 | inactive
NELFE (GeneID 7936) | 0.65 | 0.38 | inactive
AP3M1 (GeneID 26985) | 0.71 | 1.02 | inactive
DELEC1 (GeneID 50514) | 0.42 | 0.9 | inactive
COMTD1 (GeneID 118881) | 0.75 | 1.31 | inactive
ZBTB38 (GeneID 253461) | 0.16 | 0.3 | active
UTP3 (GeneID 57050) | 0.44 | 0.22 | inactive
C19orf48P (GeneID 84798) | 0.48 | 1.29 | inactive
UBE2M (GeneID 9040) | 0.68 | 1.84 | inactive
HASPIN (GeneID 83903) | 0.31 | 1.13 | inactive
SULT1A4 (GeneID 445329) | 0.54 | 1.52 | inactive
CACNG1 (GeneID 786) | 1.1 | 1.06 | inactive
DYRK4 (GeneID 8798) | 1.13 | 1.07 | inactive
GINM1 (GeneID 116254) | 0.44 | 0.3 | inactive
TEX2 (GeneID 55852) | 0.74 | 1.29 | inactive
PKD2L1 (GeneID 9033) | 0.25 | 2.07 | inactive
BCL2L15 (GeneID 440603) | 0.69 | 0.19 | inactive
SLC44A3 (GeneID 126969) | 0.87 | 1.08 | inactive
CXorf66 (GeneID 347487) | 0.62 | 0.66 | inactive
CRX (GeneID 1406) | 0.21 | 1.75 | inactive
MVB12A (GeneID 93343) | 0.77 | 0.54 | inactive
PTPRB (GeneID 5787) | 0.63 | 0.88 | inactive
BMP5 (GeneID 653) | 0.68 | 0.4 | inactive
TMED4 (GeneID 222068) | 0.11 | 1.4 | inactive
ACTC1 (GeneID 70) | 1.08 | 0.7 | inactive
MFSD12 (GeneID 126321) | 0.55 | 0.93 | inactive
NMRK2 (GeneID 27231) | 0.31 | 1.81 | inactive
SPICE1 (GeneID 152185) | 0.54 | 0.41 | inactive
RIOX1 (GeneID 79697) | 0.46 | 0.31 | inactive
BMP6 (GeneID 654) | 0.8 | 0.73 | inactive
CKAP2L (GeneID 150468) | 0.98 | 0.7 | inactive
PTDSS2 (GeneID 81490) | 0.61 | 0.92 | inactive
LRPPRC (GeneID 10128) | 0.51 | 1 | inactive
LINC03124 (GeneID 29798) | 1.01 | 0.89 | inactive
DEF8 (GeneID 54849) | 0.63 | 0.98 | inactive
NNMT (GeneID 4837) | 0.53 | 1.29 | inactive
MICALL1 (GeneID 85377) | 1.23 | 0.88 | inactive
ZNF37A (GeneID 7587) | 0.26 | 0.72 | inactive
FN1 (GeneID 2335) | 0.83 | 0.94 | inactive
SYT2 (GeneID 127833) | 0.95 | 0.5 | inactive
RORA (GeneID 6095) | 0.81 | 0.5 | inactive
CWF19L1 (GeneID 55280) | 0.79 | 0.8 | inactive

Reagents listed above with an active call, once more:
target gene | cell gain with vemurafenib | lactate per cell with vemurafenib | Call
TM4SF20 (GeneID 79853) | 0.43 | 0.17 | active
ZBTB38 (GeneID 253461) | 0.16 | 0.3 | active

Additional records follow:
target gene | cell gain with vemurafenib | lactate per cell with vemurafenib | Call
MPC2 (GeneID 25874) | 0.66 | 0.46 | inactive
PGPEP1 (GeneID 54858) | 0.36 | 0.78 | inactive
REP15 (GeneID 387849) | 0.56 | 0.76 | inactive
VWC2L (GeneID 402117) | 0.49 | 2.34 | inactive
APOBEC3B (GeneID 9582) | 0.55 | 1.36 | inactive
KIF5A (GeneID 3798) | 0.69 | 0.41 | active
DCLRE1C (GeneID 64421) | 1.14 | 1.17 | inactive
DHX40 (GeneID 79665) | 0.58 | 1.12 | inactive
DYDC2 (GeneID 84332) | 0.48 | 0.84 | inactive
ACP7 (GeneID 390928) | 0.71 | 0.81 | inactive
SCN8A (GeneID 6334) | 1 | 0.64 | inactive
ZNF610 (GeneID 162963) | 0.76 | 0.7 | inactive
GLDC (GeneID 2731) | 0.46 | 1.19 | inactive
ZFP69 (GeneID 339559) | 0.77 | 0.82 | inactive
ITLN1 (GeneID 55600) | 1.35 | 0.66 | inactive
TSPEAR (GeneID 54084) | 0.5 | 0.91 | inactive
PCDHA10 (GeneID 56139) | 0.91 | 0.47 | inactive
C3AR1 (GeneID 719) | 0.93 | 0.96 | inactive
CCL4 (GeneID 6351) | 0.26 | 1.28 | inactive
U2SURP (GeneID 23350) | 0.22 | 0.4 | active
DYDC1 (GeneID 143241) | 0.82 | 0.86 | inactive
CNTNAP3 (GeneID 79937) | 0.34 | 1.13 | inactive
GPI (GeneID 2821) | 0.51 | 0.24 | inactive
RASL10A (GeneID 10633) | 0.44 | 1.14 | inactive
MID1 (GeneID 4281) | 1.04 | 0.82 | inactive
PPP1R3C (GeneID 5507) | 0.54 | 2.06 | inactive
NEUROG3 (GeneID 50674) | 0.75 | 0.96 | inactive
TMEM69 (GeneID 51249) | 0.7 | 0.45 | inactive
OR13F1 (GeneID 138805) | 0.83 | 2.14 | inactive
ITGA4 (GeneID 3676) | 1.27 | 0.77 | inactive
TM4SF5 (GeneID 9032) | 0.89 | 0.44 | inactive
SFXN2 (GeneID 118980) | 0.21 | 0.91 | inactive
ALG6 (GeneID 29929) | 0.47 | 0.6 | inactive
ZFY (GeneID 7544) | 0.07 | 1.04 | inactive
LOX (GeneID 4015) | 1.29 | 0.52 | inactive
GATM (GeneID 2628) | 0.21 | 1.44 | inactive
DOCK8 (GeneID 81704) | 0.43 | 1.52 | inactive
DMRTC1 (GeneID 63947) | 0.16 | 3.32 | inactive
GOLT1B (GeneID 51026) | 0.54 | 0.52 | inactive
KRT18P55 (GeneID 284085) | 0.26 | 1.19 | inactive
NPY (GeneID 4852) | 1.06 | 0.4 | inactive
CCR7 (GeneID 1236) | 1.09 | 0.52 | inactive
